PubChem BioAssay AID743121 – NCATS – 2013
Purpose: 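Partners whose loss is lethal together with topoisomerase I blockade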 (primary screen). Cells: MDA-MB-231 cells, a human breast cancer line. Reagents: single siRNA against human genes, 20 nM siRNA (0.8 pmol per well). Timing: 120 h (drug added 48 h after transfection, read 72 h later). Conditions: camptothecin 20 nM (about EC30) for 72 h; vehicle 0.1% DMSO in parallel plates. Measurement: 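CellTiter-Glo ATP signal, scaled to control siRNA as percent viability; sensitisation given as log2 of untreated divided by camptothecin-treated viability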. Scale: log2 vehicle/camptothecin viability: higher = stronger sensitisation to camptothecin; viability with camptothecin and viability without drug: higher = more viable cells. Active means: 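Each gene scored by redundant siRNA activity (RSA) over its individual siRNA ratios; a gene is called active at p < 0.001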.
Here is an unselected part of about 26,000 reagents. 167 of all reagents (0.63%) count as active. 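Calls are per gene from RSA p-values that are not deposited; an individual active-marked siRNA can sensitise only weakly.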 A number with no mark means an inactive call. The numbers tell different reagents against one gene apart.

log2 vehicle/camptothecin viability	viability with camptothecin (% of control)	viability without drug (% of control)	gene	reagent no.
0.0326	74.2	75.8	CACNB2 (calcium voltage-gated channel auxiliary subunit beta 2)	1
0.81	48.6	85.2	CACNB2 (calcium voltage-gated channel auxiliary subunit beta 2)	2
0.0675	100	105	CACNB2 (calcium voltage-gated channel auxiliary subunit beta 2)	3
0.479	66.9	93.3	CACNB2 (calcium voltage-gated channel auxiliary subunit beta 2)	4
-0.0323	93.1	91	RAB41 (RAB41, member RAS oncogene family)	1
0.144	55	60.8	RAB41 (RAB41, member RAS oncogene family)	2
-0.117	60.8	56.1	RAB41 (RAB41, member RAS oncogene family)	3
-0.2	118	103	RAB41 (RAB41, member RAS oncogene family)	4
0.0591	78.9	82.2	MDK (midkine)	1
0.164	78.1	87.5	MDK (midkine)	2
0.0637	71.3	74.6	MDK (midkine)	3
-0.00727	107	106	MDK (midkine)	4
-0.474	43.7	31.5	RABGGTA (Rab geranylgeranyltransferase subunit alpha)	1
-0.09	92.1	86.5	RABGGTA (Rab geranylgeranyltransferase subunit alpha)	2
-0.145	107	96.9	RABGGTA (Rab geranylgeranyltransferase subunit alpha)	3
-0.358	86.9	67.8	RABGGTA (Rab geranylgeranyltransferase subunit alpha)	4
-0.432	81.9	60.7	ADAM30 (ADAM metallopeptidase domain 30)	1
0.0138	92	92.9	ADAM30 (ADAM metallopeptidase domain 30)	2
-0.229	117	100	ADAM30 (ADAM metallopeptidase domain 30)	3
0.517	65	93	ADAM30 (ADAM metallopeptidase domain 30)	4
-0.0296	96.6	94.6	GABRG3 (gamma-aminobutyric acid type A receptor subunit gamma3)	1
-0.0628	118	113	GABRG3 (gamma-aminobutyric acid type A receptor subunit gamma3)	2
-0.549	78.2	53.4	GABRG3 (gamma-aminobutyric acid type A receptor subunit gamma3)	3
-0.13	84.4	77.1	GABRG3 (gamma-aminobutyric acid type A receptor subunit gamma3)	4
-0.231	110	93.6	CACNG8 (calcium voltage-gated channel auxiliary subunit gamma 8)	1
-0.469	59.5	43	CACNG8 (calcium voltage-gated channel auxiliary subunit gamma 8)	2
-0.261	90.7	75.7	CACNG8 (calcium voltage-gated channel auxiliary subunit gamma 8)	3
-0.169	75.5	67.2	CACNG8 (calcium voltage-gated channel auxiliary subunit gamma 8)	4
